Library screen at single concentrations

Measurements from “University of Dundee, Small-Polar-MMV Screening Library” (2021), ChEMBL document CHEMBL3988442.

Mtb glucose medium: 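Growth of Mycobacterium tuberculosis over 3 days (7H9 medium with glucose and tyloxapol); the read-out is not stated. Tested at 50 µM. Direction is inferred from retests: higher values go with more growth inhibition. About 69,000 compounds were tested under these conditions; 1.1% (about 760) showed 50% or more at least once.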
Mtb cholesterol medium: 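Growth of Mycobacterium tuberculosis over 4 days (cholesterol / DPPC medium with tyloxapol); the read-out is not stated. Tested at 50 µM. Direction is inferred from retests: higher values go with more growth inhibition. Size under these conditions: about 69,000 compounds, about 370 of them at 50% or above in at least one test.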

The filed quantity is “Percent Effect” (%).
How 0% and 100% were set is not recorded. Most values in the screen are low, and negative values occur.
Compounds were drawn at random from those tested, without regard to their results.
Two or more numbers in one place are separate tests of the same structure; such repeats can differ widely.

| SMILES | Mtb glucose medium | Mtb cholesterol medium |
|---|---|---|
| `Cc1cccn2cc(CC(=O)N3CCCC(n4cncn4)C3)nc12` (stereo not drawn) | 13.02 | 0.8735 |
| `COCCn1c(CN2CCCO2)cnc1S(=O)(=O)CC1CCCCC1` | -14.22 | 9.046 |
| `CC(C)NC(=O)COc1cccc(-c2nc(C(C)C)no2)c1` | -7.759 | -20.11 |
| `CCc1ccc(OCCN(C)C(=O)c2ccncc2Cl)cc1` | 9.204 | -3.641 |
| `CNc1cc(N2CCCC2CNCc2csc(C(C)C)n2)ncn1` (stereo not drawn) | 9.428 | -40.95 |
| `O=C(Cn1c(C(F)F)cc2cccnc21)NC1CCCC1` | -11.02 | 6.131 |
| `COC(=O)c1cc(OC)c(OC)cc1N(C)S(C)(=O)=O` | -11.84 and -87.96 | -85.35 |
| `Cc1ccc(C(=O)NCCNC(=O)c2cncnc2C(C)C)cc1F` | -10.79 | -8.333 and -1.952 |
| `COc1ccc(OC)c(CN(C(=O)c2ccc(C)[nH]c2=O)C2CC2)c1` | 3.445 | -22.68 |
| `Cc1ccc2c(c1)OC(C)CN2C(=O)CCc1cscn1` (stereo not drawn) | 1.922 | -6.055 |
| `Cc1cc(C)c(CNC(=O)NCc2nnc3n2CCCCC3)c(=O)[nH]1` | 2.046 | 2.016 |
| `CCCc1cc(C(=O)N(CC)Cc2ccncc2)[nH]n1` | -2.625 and 3.901 | 2.329 |
| `Cl.c1cc(CNc2cnc(C3CCCN3)cn2)ccn1` (stereo not drawn) | 12.78 | 2.639 and -0.2571 |
| `O=C(O)C(F)(F)F.[H][C@@]12CCN(Cc3ccc(F)cc3)[C@]1([H])CC[C@@H](C(=O)NCc1ccco1)O2` | 12.93 and -7.416 | -18.12 |
| `COc1ccc(CN2CCC3(CC2)CC(CC(=O)NC(C)C)CO3)cc1.O=C(O)C(F)(F)F` (stereo not drawn) | -8.884 | -4.998 and 0.7688 |
| `Cn1ccnc1CN1C[C@@H](CN2CCCCCC2)[C@@H](CO)C1` | 4.977 | -3.877 |
| `[H][C@@]12CNC(=O)N1CCN(C1CCN(C)CC1)C2` | 4.652 and -2.089 | -16.99 |
| `Cc1n[nH]c(CCC(=O)N2CCOC(Cc3ccccc3)C2)c1C` (stereo not drawn) | 11.44 | 0.3515 |
| `Cc1noc(NC(=O)c2ccc(Br)cc2)n1` | 8.635 | 11.65 |
| `CCc1ccc(CN(C)C(=O)C2CC(=O)N(c3cccc(O)c3)C2)nc1` (stereo not drawn) | -6.976 | -25.04 and 0.6839 |
| `CC(C)OCCCNC(=O)c1ccc(-c2ccco2)[nH]c1=O` | -23.94 | -23.66 |
| `NC(=O)CN1CC(c2nc(C3CC3)no2)C1.O=C(O)C(=O)O` | -6.728 | -15.69 |
| `[H][C@@]12CCCC[C@]1(O)CCN(C(=O)c1cc3ccccc3n1C)C2` | -1.489 | 9.436 |
| `O=C(O)C(F)(F)F.O=C(O)C(F)(F)F.[H][C@@]12C[C@H](C(=O)Nc3cccnc3)CN(Cc3ccc(F)cc3)[C@]1([H])CCO2` | -27.08 | -6.218 |
| `NC(=O)C1CCN(C(=O)CCn2ccc3ccc(F)cc32)CC1` | -31.05 | -4.05 |
| `Cc1oc(C(=O)O)cc1S(=O)(=O)Nc1cc(F)ccc1F` | 12.06 | -18.8 |
| `O=c1cc(N2CCc3ccccc3C2)cnn1CCC1CCOC1` (stereo not drawn) | 3.439 | 10.19 |
| `CNC(=O)CS(=O)(=O)Cc1coc(-c2cccc(F)c2)n1` | -1.647 and 3.136 | -19.77 |
| `CC1Cc2cc(-c3cncn3CC(=O)NC(C)(C)C)ccc2N1C.Cl` (stereo not drawn) | 32.07 | 11.25 |
| `COC(=O)c1ccc(F)c(Cn2nc(C)cc2C)c1` | 30.45 | 12.8 |
| `CCN(CC)C(=O)[C@@H]1C[C@@H](NC(=O)c2ccoc2)CN1C` | -25.18 | -28.31 |
| `CC(C)Oc1ncccc1CNC(=O)c1cc(C2CC2)on1` | 31.37 | -31.06 |
| `NCC1Cc2cc(-c3cnccn3)cc(Cl)c2O1` (stereo not drawn) | 2.9 | -32.05 |
| `COC(=O)NCCCC(=O)NCC1(c2cccc(Cl)c2)CC1` | 26.54 | 38.62 |
| `Cc1cc(C)c(C(=O)Nc2cccc(CN3CCC(CO)CC3)c2)o1` | -3.841 | -13.57 |
| `CC(C)CCN1C2(CCN(C(=O)C3(C)CC3)C2)c2ccccc2S1(=O)=O` (stereo not drawn) | -9.578 | -21.81 |
| `CCN1CCC2(CC1)CC(Nc1ncccn1)CO2` (stereo not drawn) | -4.945 | 1.109 and -0.9709 |
| `Cn1cnnc1CNC(=O)CCCOc1ccccc1Cl` | -14.12 and 3.162 | 4.636 |
| `CCN(CC(F)(F)F)C(=O)C1CCCN(Cc2ccno2)C1` (stereo not drawn) | -4.91 | 13.16 |
| `CC(O)CN1CCC(CNCc2cccc(C(=O)N(C)C)c2)CC1` (stereo not drawn) | -38.83 | -14.59 |
| `[H][C@@]12C[C@H](c3ccncn3)O[C@@]1([H])CCN(c1cc(OC)ncn1)C2` | 14.71 and -1.508 | -41.61 |
| `COCC(=O)N[C@H](C)c1onc(-c2ccc(F)cc2)c1C(=O)O` | -45.11 and -3.168 | -23.83 |
| `Cc1cc(C(F)(F)F)nn1C(C)C(=O)NN1CCOCC1` (stereo not drawn) | 16.17 | 5.337 |
| `Cn1cc(N2CCC(NC(=O)c3ccccc3F)C2=O)cn1` (stereo not drawn) | 6.543 and 29.38 | 9.523 |
| `Cc1nn(C)c2ncnc(N3CCCC(C)(O)C3)c12` (stereo not drawn) | -24.96 | 2.475 |
| `Cc1ccc(C)c(OCCC(=O)N2CCCN(CC(N)=O)CC2)c1` | -33.53 | -16.43 |
| `Cc1nn(C)cc1-c1cc(C(=O)NCC(C)(C)c2ccc(F)cc2)n[nH]1` | 23.9 | 25.98 and 21.93 |
| `Cc1cccc2c1cnn2CCCNC(=O)C(C)C` | -22.2 | -20.57 |
| `CC(C)(CNC(=O)C1(c2ccccc2)CCOCC1)C(=O)O` | 11.73 | 9.487 |
| `CCOCCN1CCCC(c2cc(C(N)=O)[nH]n2)C1` (stereo not drawn) | -22.51 | 1.623 |
| `Cc1cc(CN(CCCO)c2ccccc2)on1` | -2.679 | 3.824 |
| `CN1CCOC(C(=O)Nc2ccc3c(c2)nc(C2CC2)n3C)C1` (stereo not drawn) | 5.742 | 6.683 |
| `CC(C)(C)C(=O)NCCCn1cncn1` | -27.65 | -11.5 |
| `CCCn1ccc(C(=O)N2CCOC(c3nc(-c4cccs4)no3)C2)n1` (stereo not drawn) | 38.53 | 35.24 |
| `Cc1cc(NCC(=O)N(C)CC(F)(F)F)c(C(N)=O)cc1F` | 4.377 | -27.15 |
| `Cc1cnn(CC(C)NCc2ccc(S(C)(=O)=O)cc2)c1` (stereo not drawn) | -0.8542 | 7.871 |
| `Cl.Cn1nc(C2CCCN(Cc3cccs3)C2)c2nccnc21` (stereo not drawn) | 1.031 | -6.882 |
| `Cc1ccc(Cl)c(CN2CCC3(CC2)C(C(=O)O)CC(=O)N3C)c1F` (stereo not drawn) | -11.01 and 2.088 | -9.255 |
| `Cc1noc(C)c1CCC(=O)NC(C)c1nnc2n1CCC2` (stereo not drawn) | -4.842 | 14.36 |
| `Cc1cccc2c1nc1n2[C@@H](CNC(=O)C2CCOCC2)COC1` | 2.835 and -1.042 | -11.11 |
| `CO[C@H]1CCN(C(=O)c2cc(C)on2)[C@H]1Cc1ccncc1` | -13.77 | -12.44 |
| `CCC(CNS(=O)(=O)c1cccc(C(=O)OC)c1)N1CCCC1` (stereo not drawn) | 14.03 | -0.2433 |
| `N#Cc1cn(CCCN2CCc3ccccc32)c(=O)[nH]c1=O` | -21.85 | -23.3 |
| `CC1CCN(S(=O)(=O)N2C[C@H](c3ccccc3)[C@@H](N)C2)CC1` | 12.71 | -6.131 |
| `Cn1cc(C2CC(=O)NC23CCN(Cc2nccs2)CC3)cn1` (stereo not drawn) | -36.65 | -3.125 |
| `NC(=O)CCC1CCCN(Cc2cnc(N3CCCCC3)nc2)C1` (stereo not drawn) | 22 | 14.77 |
| `O=C(O)c1cn(CC2CCCN(c3cnc4ccccc4n3)C2)nn1` (stereo not drawn) | -22.8 | -8.022 |
| `O=C(NCCSc1ccccc1F)NCc1cccnc1` | 6.342 | 2.794 |
| `CN(Cc1cc(Br)cn1C)C(=O)Cc1cccc(O)c1` | 0.8396 and 7.749 | 9.671 |
| `CN(CCO)C1CCN(c2ncc3c(n2)CCN3c2ccccc2)CC1` | 2.089 | 11.25 |
| `Cn1cnnc1-c1ccnc(NCc2ccc(Br)cc2)c1` | -4.438 | 14.91 |
| `COc1ccc(CNC(c2cccc(F)c2)c2cnn(C)c2)cc1` (stereo not drawn) | 17.01 and -0.1395 | 5.111 |
| `CN(c1cccnn1)C1CCN(C(=O)c2n[nH]c3c2CCC3)CC1` | 6.248 | 21.31 |
| `Cc1ccccc1-n1cc(-c2ccnc(N3CCCC(O)C3)n2)cn1` (stereo not drawn) | 7.994 and 15.59 | 31.94 |
| `[H][C@]12CC[C@]([H])(CN(Cc3cccnc3)C1)N(Cc1cccc(O)c1)C2` | -5.173 and -34.3 | -6.007 and -21.86 |
| `[H][C@@]12CS(=O)(=O)C[C@]1([H])N(Cc1cccnc1)CCN2CCOC` | -31.2 | -30.14 |
| `CCc1[nH]ncc1C(=O)N1CCCC(n2cccn2)C1` (stereo not drawn) | -10.79 | 2.558 |
| `Cc1ccccc1CN(C)C(=O)Cn1nc(-c2ccc(F)cc2)oc1=O` | -16.37 | -42.55 |
| `O=S(=O)(NCCn1ccc(-c2ccccn2)n1)C1CC1` | 45.52 | 10.21 |
| `Fc1cccc(-c2nc(CN3CCCC(Cn4cncn4)C3)co2)c1` (stereo not drawn) | -8.662 | -18.31 |
| `COc1ccccc1CNC(Cn1cncn1)c1ccccc1` (stereo not drawn) | 10.46 | 13.73 |
| `COc1ccc(S(=O)(=O)N2CCOC[C@H](Oc3cnccn3)C2)cc1` | 8.166 and 7.176 | 1.464 |
| `CS(=O)(=O)N1CCC(C(=O)N2CCC3(CC2)OCCCO3)CC1` | -7.93 | 2.515 |
| `CCOCC1CN(Cc2ccc(F)cc2)Cc2nn(CC3CC3)cc21` (stereo not drawn) | 44.02 | 3.82 |